Measured values as given in the supplement of paper PMC12823440, “Inhibitors supercharge kinase turnover through native proteolytic circuits” (Nature, 2025).
Counter-ions that a name gives are not always drawn. The list shows a part of the results. Hit calls seldom repeat between salt and free forms of one compound.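 Kinases, fused to nanoluciferase, were expressed in K562 cells; luminescence was measured every 4 h from 2 to 18 h as percent of control (DMSO = 100%, positive control = 0%). A time point is decreased if signal falls significantly (2 sigma). Hits were called by the authors by a rule that is not shown; the count of time points alone does not decide it.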

By UniProt entry, the sequences of proteins in these tests, tags left out. Where a name states a change or a piece, a line headed by the entry shows the natural chain unless it says otherwise.
UniProt P07947, whole entry, looked up: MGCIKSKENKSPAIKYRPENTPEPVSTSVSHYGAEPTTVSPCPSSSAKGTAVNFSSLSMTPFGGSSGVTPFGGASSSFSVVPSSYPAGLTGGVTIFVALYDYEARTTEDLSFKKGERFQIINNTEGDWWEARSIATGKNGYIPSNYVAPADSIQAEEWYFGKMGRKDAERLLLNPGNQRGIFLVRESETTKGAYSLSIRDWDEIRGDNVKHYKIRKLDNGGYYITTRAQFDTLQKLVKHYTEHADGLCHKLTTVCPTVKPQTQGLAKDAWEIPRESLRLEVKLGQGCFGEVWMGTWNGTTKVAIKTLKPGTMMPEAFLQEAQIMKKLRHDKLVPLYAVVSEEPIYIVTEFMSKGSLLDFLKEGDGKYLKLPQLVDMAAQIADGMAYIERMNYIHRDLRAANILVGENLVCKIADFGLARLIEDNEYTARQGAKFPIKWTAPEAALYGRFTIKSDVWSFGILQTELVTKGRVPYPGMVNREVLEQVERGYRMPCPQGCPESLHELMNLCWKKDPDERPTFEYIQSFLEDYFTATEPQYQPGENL
UniProt P43403: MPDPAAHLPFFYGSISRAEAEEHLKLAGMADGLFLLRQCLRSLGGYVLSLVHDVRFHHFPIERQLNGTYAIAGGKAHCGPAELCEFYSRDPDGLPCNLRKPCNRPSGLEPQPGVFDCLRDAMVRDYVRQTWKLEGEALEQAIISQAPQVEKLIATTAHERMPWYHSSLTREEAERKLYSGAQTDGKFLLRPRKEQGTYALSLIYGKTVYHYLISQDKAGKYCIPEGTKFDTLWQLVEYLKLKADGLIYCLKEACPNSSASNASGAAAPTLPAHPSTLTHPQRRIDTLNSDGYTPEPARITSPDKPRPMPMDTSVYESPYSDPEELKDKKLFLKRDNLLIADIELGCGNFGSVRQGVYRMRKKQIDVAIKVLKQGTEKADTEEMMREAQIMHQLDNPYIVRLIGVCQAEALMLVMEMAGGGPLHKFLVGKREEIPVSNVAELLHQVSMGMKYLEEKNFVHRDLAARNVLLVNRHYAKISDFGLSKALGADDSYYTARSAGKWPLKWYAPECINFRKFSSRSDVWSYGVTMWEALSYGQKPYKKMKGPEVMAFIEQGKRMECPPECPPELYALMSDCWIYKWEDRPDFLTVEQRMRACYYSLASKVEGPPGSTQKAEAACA
UniProt P11802: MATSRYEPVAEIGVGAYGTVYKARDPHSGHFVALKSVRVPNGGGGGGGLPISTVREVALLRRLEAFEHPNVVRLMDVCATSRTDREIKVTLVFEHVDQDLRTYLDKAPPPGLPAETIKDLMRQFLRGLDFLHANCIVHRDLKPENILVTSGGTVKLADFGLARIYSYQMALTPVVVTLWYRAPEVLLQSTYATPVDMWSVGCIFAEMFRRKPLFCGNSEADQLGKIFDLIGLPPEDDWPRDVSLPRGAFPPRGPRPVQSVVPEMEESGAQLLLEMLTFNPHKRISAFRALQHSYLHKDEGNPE
UniProt P50613: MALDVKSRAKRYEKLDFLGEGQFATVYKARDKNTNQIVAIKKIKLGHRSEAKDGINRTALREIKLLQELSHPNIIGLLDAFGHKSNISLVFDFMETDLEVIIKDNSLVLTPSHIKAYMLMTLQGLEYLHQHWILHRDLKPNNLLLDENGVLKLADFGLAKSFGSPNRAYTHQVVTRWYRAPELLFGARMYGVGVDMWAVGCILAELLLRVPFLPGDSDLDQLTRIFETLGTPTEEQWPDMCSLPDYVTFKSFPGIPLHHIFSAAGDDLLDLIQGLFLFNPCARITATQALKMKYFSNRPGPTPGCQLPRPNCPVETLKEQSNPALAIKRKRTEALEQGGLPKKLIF
UniProt P50750, whole entry: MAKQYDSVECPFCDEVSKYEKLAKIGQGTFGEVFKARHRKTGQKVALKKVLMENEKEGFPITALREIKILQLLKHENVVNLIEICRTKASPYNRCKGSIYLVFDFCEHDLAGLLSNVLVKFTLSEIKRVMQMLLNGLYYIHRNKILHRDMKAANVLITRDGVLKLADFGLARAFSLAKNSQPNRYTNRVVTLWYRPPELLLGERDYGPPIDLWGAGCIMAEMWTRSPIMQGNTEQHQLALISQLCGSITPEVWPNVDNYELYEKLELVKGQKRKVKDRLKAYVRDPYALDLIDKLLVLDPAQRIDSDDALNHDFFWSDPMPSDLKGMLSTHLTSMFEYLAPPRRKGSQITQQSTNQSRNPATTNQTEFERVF

How the values were obtained:
Conditions in all cases: K562; 2-18 h
[1] = molecular target: YES1 (UniProt P07947); assay: number of time points (of 5) at which kinase-Nluc abundance scored as decreased, DMSO-normalised (count); higher = more persistent destabilization
[2] = molecular target: ZAK (UniProt Q9NYL2); assay: as above
[3] = molecular target: ZAP70 (UniProt P43403); assay: as above
[4] = molecular target: CDK4 (UniProt P11802); assay: number of time points (of 4; 2 h point missing) at which kinase-Nluc abundance scored as decreased, DMSO-normalised (count); higher = more persistent destabilization
[5] = molecular target: CDK7 (UniProt P50613); assay: as above
[6] = molecular target: CDK9 (UniProt P50750); assay: as above

Measured: number of time points

COc1ccc([C@@H]2CC(=O)c3c(O)cc(O)cc3O2)cc1O [Hesperetin] (10 µM)
0: all assays above

CCOc1cc(C(=O)N2CCC(N3CCN(C)CC3)CC2)ccc1Nc1ncc2c(n1)N(C1CCCC1)c1ccccc1C(=O)N2C (10 µM)
0: all assays above

C=C(C)C(=O)Nc1cccc(-c2ncnc3[nH]cc(C(=O)OCC)c23)c1 (10 µM)
0: all assays above

OC(COc1ccc(C(F)(F)F)cc1)CN(Cc1ccccc1)Cc1ccccc1 (configuration not stated) (2.5 µM)
0: all assays above

O=C1Nc2nc(-c3c(O)cccc3OCC3CC3)cc([C@@H]3CCCNC3)c2CO1 [Bay 65-1942 (hydrochloride)] (10 µM)
0: all assays above

CC1CCc2nc(N)c(C#N)c(-c3cccnc3)c2C1 (configuration not stated) (10 µM)
0: all assays above

Nc1ncnc2c1c(-c1ccc(Oc3ccccc3)cc1)nn2C1CCNCC1 [N-piperidine Ibrutinib (hydrochloride)] (10 µM)
0: all assays above

COc1ccc(C(=O)Nc2sc3c(c2C(N)=O)CCCC3)cc1OC (10 µM)
0: all assays above

CCn1c(=O)c(-c2ccc(-c3cncc(C)n3)cc2Cl)cc2cnc(NCCC3CCN(C)CC3)nc21 (10 µM)
0: all assays above

COc1cc(S(C)(=O)=O)ccc1Nc1nc2ccc(-c3ccc(NC(=O)[C@H](C)c4ccc(F)cc4)cc3)cn2n1 [Empesertib] (10 µM)
0: all assays above

N#Cc1cccc(-c2c[nH]c3ncnc(N4CCOCC4)c23)c1 (10 µM)
0: all assays above

Fc1ccc(-c2nc(-c3c(F)cccc3F)[nH]c2-c2ccncc2)cc1 (10 µM)
0: all assays above

NC1(Cc2ccc(Cl)cc2)CCN(c2ncnc3[nH]ccc23)CC1 (10 µM)
0: all assays above

Nc1ncnc2c1c(-c1ccc(Oc3ccccc3)cc1)nn2C1CCCNC1 (racemic) (2.5 µM)
0: all assays above

CC(C)=CC(=O)CCC(=O)N1CCN(Cc2cc3nc(-c4cccc5[nH]ncc45)nc(N4CCOCC4)c3s2)CC1 (10 µM)
4: [6]
0: all other assays above

O=C(O)c1cc(O)ccc1O [2,5-Dihydroxybenzoic acid] (10 µM)
0: all assays above

CC/C=C\C/C=C\C/C=C\CCCCCCCC(=O)O [α-Linolenic acid] (10 µM)
0: all assays above

CC(C)=CCC[C@](C)(O[C@@H]1O[C@H](CO)[C@@H](O)[C@H](O)[C@H]1O)[C@H]1CC[C@]2(C)[C@@H]1[C@H](O)C[C@@H]1[C@@]3(C)CC[C@H](O)C(C)(C)[C@@H]3[C@@H](O[C@@H]3O[C@H](CO)[C@@H](O)[C@H](O)[C@H]3O[C@@H]3O[C@@H](C)[C@H](O)[C@@H](O)[C@H]3O)C[C@]12C [Ginsenoside Re] (10 µM)
1: [6]
0: all other assays above

O=C(/C=C/c1ccc(O)c(O)c1)OC1CC(OC(=O)/C=C/c2ccc(O)c(O)c2)(C(=O)O)CC(O)C1O (configuration not stated) [1,3-Dicaffeoylquinic acid] (10 µM)
0: all assays above

CC[C@@]1(c2ccccc2)C2=C(CC(C)(C)CC2=O)Nc2[nH]ncc21 (10 µM)
0: all assays above

COc1ccc(C(=C2C(=O)Nc3ccccc32)c2ccc(OC)cc2)cc1 (10 µM)
0: all assays above

CN(CC(=O)N(Cc1ccc(C2CCCCC2)cc1)c1ccc(C(=O)O)cc1)S(=O)(=O)c1c(F)c(F)c(F)c(F)c1F (2.5 µM)
0: all assays above

C[C@]1(O)CCC[C@@H]1n1c(=O)c(C(F)F)cc2cnc(NC3CCN(S(C)(=O)=O)CC3)nc21 (10 µM)
0: all assays above

Cn1cc(-c2ccc(CNc3cc(-c4cnc5cc(OCCCN6CCCC6)ccn45)ncn3)cc2)cn1 (10 µM)
0: all assays above

CC(C)NC(=O)N1CC[C@H](NC2=Nc3cc(F)ccc3N(CC(F)F)c3ccc(Cl)cc32)C1 (10 µM)
0: all assays above

COCCOc1cnc(Sc2cc(C)c(-c3csc(NC(=O)c4ccncc4)n3)c(C)c2)cn1 [T-1101 (tosylate)] (2.5 µM)
1: [5]
0: all other assays above

COc1ccc(Cl)cc1NC(=O)Nc1cc(C)nc2ccccc12 (2.5 µM)
0: all assays above

CC(=NNC(=O)c1ccc(C)c(Br)c1)c1ccc(O)cc1O [mTOR inhibitor-1] (2.5 µM)
0: all assays above

Cn1c(=O)c(F)c(Nc2ccc(I)cc2F)c2c(=O)n(C[C@@H](O)CO)cnc21 (10 µM)
1: [5]
0: all other assays above

Cc1ccc(S(=O)(=O)/C=C/C#N)cc1 (10 µM)
0: all assays above

N[C@H](Cc1c[nH]c2ccccc12)C(=O)N/N=C/c1ccc2nccnc2c1 [Rhosin (hydrochloride)] (10 µM)
0: all assays above

CC(C)=CC[C@H](O)C1=CC(=O)c2c(O)ccc(O)c2C1=O [(-)-Alkannin] (2.5 µM)
0: all assays above

Cc1ccc(S(=O)(=O)Nc2ccccc2C=Nc2ccccc2NS(=O)(=O)c2ccc(C)cc2)cc1 (10 µM)
0: all assays above

OC[C@H]1O[C@@H](Oc2cc3c(O)cc(O)cc3[o+]c2-c2cc(O)c(O)c(O)c2)[C@H](O)[C@@H](O)[C@@H]1O [Delphinidin 3-glucoside (chloride)] (10 µM)
0: all assays above

CS(=O)(=O)c1ccc(-c2noc(C(F)(F)F)c2-c2ccccc2)cc1 (10 µM)
0: all assays above

CC(C)c1cnc(-c2cc(Cl)ccc2F)cc1Nc1ccncc1C(=O)NC(CO)CO (2.5 µM)
0: all assays above

CC(C)CN[C@H]1CS(=O)(=O)C[C@@H]1S(=O)(=O)c1ccc(Cl)cc1 (10 µM)
0: all assays above

COCCOc1ccc(-c2cn(-c3ccccc3)c3nc[nH]c(=O)c23)cc1 (10 µM)
0: all assays above

COc1cc2ncn(-c3cc(OCc4ccccc4S(C)(=O)=O)c(C#N)s3)c2cc1OC (10 µM)
0: all assays above

CN1CCN(c2ccc(C(=O)Nc3cc(-c4cccc(NS(=O)(=O)c5ccccc5)c4)[nH]n3)cc2)CC1 [BPR1J-097 Hydrochloride] (2.5 µM)
0: all assays above

C[C@@]1(O)CCC[C@H]1n1c(=O)c(C(F)F)cc2cnc(NC3CCN(S(C)(=O)=O)CC3)nc21 (2.5 µM)
1: [5]
0: all other assays above

Quoted at random: five records from the list
COCCOc1ccc(-c2cn(-c3ccccc3)c3nc[nH]c(=O)c23)cc1 (10 µM)
0: all assays above

C[C@@]1(O)CCC[C@H]1n1c(=O)c(C(F)F)cc2cnc(NC3CCN(S(C)(=O)=O)CC3)nc21 (2.5 µM)
1: [5]
0: all other assays above

CC(C)CN[C@H]1CS(=O)(=O)C[C@@H]1S(=O)(=O)c1ccc(Cl)cc1 (10 µM)
0: all assays above

CN1CCN(c2ccc(C(=O)Nc3cc(-c4cccc(NS(=O)(=O)c5ccccc5)c4)[nH]n3)cc2)CC1 [BPR1J-097 Hydrochloride] (2.5 µM)
0: all assays above

OC[C@H]1O[C@@H](Oc2cc3c(O)cc(O)cc3[o+]c2-c2cc(O)c(O)c(O)c2)[C@H](O)[C@@H](O)[C@@H]1O [Delphinidin 3-glucoside (chloride)] (10 µM)
0: all assays above

Next entries follow.

C[C@@H](c1ccc2nccn2c1)n1nnc2ncc(-c3cnn(C)c3)nc21 [Savolitinib] (10 µM)
0: all assays above

O=C(Nc1ccc2[nH]nc(-c3ccncc3)c2c1)[C@@H]1CCN(CC(=O)N2CCN(c3ccc(-c4ncccn4)cc3)CC2)C1 (2.5 µM)
0: all assays above

Cc1cc(Nc2nc(N[C@@H](C)c3ccc(F)cc3)c(C#N)cc2F)n[nH]1 (10 µM)
0: all assays above

COc1ccc(CC(=O)Nc2nc3c(s2)CCc2ccccc2-3)cc1OC (10 µM)
0: all assays above

Cc1cc(NC(=O)c2cccc(NC(=O)/C=C/CN(C)C)c2)ccc1Nc1nccc(-c2cccnc2)n1 (10 µM)
4: [1]
0: all other assays above

C=CC(=O)Nc1cc2c(Nc3ccc(OCc4ccccn4)c(Cl)c3)ncnc2cc1OCCN1CCOCC1 (10 µM)
4: [5]
0: all other assays above

CNC(=O)c1ccc(-c2cnc3cnc(C(=O)N(C)c4ccc(Cl)cc4)cn23)cc1 (2.5 µM)
0: all assays above

COc1ccc(-c2ccc3c(N4CCOC[C@@H]4C)nc(N4CCOC[C@@H]4C)nc3n2)cc1CO (2.5 µM)
0: [3] | [4]
3: [5] | [6]
2: [1] | [2]

Cc1ccc2nc(NC(=O)CSc3nc4c(c(=O)n3-c3ccccc3)SCC4)sc2c1 (2 µM)
0: all assays above

COc1ccc2c(c1O)OC(C)(C)c1c-2ccc2c1C(=O)N(c1ccc(C(=O)c3ccccc3)cc1)C2=O [Ampkinone] (10 µM)
0: all assays above

N#Cc1ccc2ncnc(NC3CCC(N4CCOCC4)CC3)c2c1 (configuration not stated) (10 µM)
0: all assays above

O=C(Nc1nc2ccccc2[nH]1)c1cccc(-n2cccc2)c1 (10 µM)
0: all assays above

C=CC(=O)Nc1cccc(C)c1Nc1ncc2cc(-c3c(Cl)c(OC)cc(OC)c3Cl)ccc2n1 (2.5 µM)
0: all assays above

CCc1cc(O)c(F)cc1-c1ccc2c(-c3nc4c([nH]3)CN(C3CCN(C)CC3)CC4)n[nH]c2c1 [JAK-IN-5 (hydrochloride)] (2 µM)
0: all assays above

COc1ncc(-c2nc(N3CCOCC3)nc3c(CN4CCC(C(C)(C)O)CC4)cc(F)cc23)cc1NS(C)(=O)=O [Linperlisib] (10 µM)
0: all assays above

C=CC(=O)Nc1ccc(CN(C(=O)Nc2c(Cl)c(OC)cc(OC)c2Cl)c2cc(Nc3ccc(N4CCN(C)CC4)cc3)ncn2)cc1 (10 µM)
0: all assays above

O=C(NCCO)c1ccc2c(c1)nc(Nc1cccc(Cl)c1)c1ccncc12 [CK2 inhibitor 2] (10 µM)
0: all assays above

Cc1ccc(Oc2nc3cc(-c4ccc5c(ccn5C)c4)c(Cl)cc3[nH]2)cc1C(=O)O (10 µM)
0: all assays above

O=C(CNC(=O)c1ccc(-c2ccccc2)cc1)NC1CCCc2ccccc21 (configuration not stated) [TAO Kinase inhibitor 1] (10 µM)
0: all assays above

O=C(NC(NC(=S)Nc1ccc(F)c([N+](=O)[O-])c1)C(Cl)(Cl)Cl)C(c1ccccc1)c1ccccc1 (configuration not stated) (10 µM)
0: all assays above

C=C(CCC=C(C)C)[C@H]1CC[C@]2(C)[C@@H]1[C@H](O)C[C@@H]1[C@@]3(C)CC[C@H](O[C@@H]4O[C@H](CO)[C@@H](O)[C@H](O)[C@H]4O[C@@H]4O[C@H](CO)[C@@H](O)[C@H](O)[C@H]4O)C(C)(C)[C@@H]3CC[C@]12C [Ginsenoside Rk1] (10 µM)
0: all assays above

NCc1ccc(Nc2ncc(F)c(Nc3ccccc3)n2)cc1 (10 µM)
0: all assays above

Cc1c(NC(=O)OC[C@@H]2COCCN2)cn2ncnc(Nc3ccc4c(cnn4Cc4cccc(F)c4)c3)c12 (10 µM)
0: all assays above

C[C@@H]1O[C@@H](O[C@H]2[C@H](Oc3cc(O)c4c(=O)cc(-c5ccc(O)cc5)oc4c3)O[C@H](CO)[C@@H](O)[C@@H]2O)[C@H](O)[C@H](O)[C@H]1O [Rhoifolin] (10 µM)
0: all assays above

C/C(=C1/C(=O)Nc2ccc(NC(N)=O)cc21)c1ccc[nH]1 (10 µM)
0: all assays above

CCN(CC)S(=O)(=O)c1ccc(OC)c(N2CCN(C(=O)c3ccc(F)cc3C(F)(F)F)CC2)c1 (10 µM)
0: all assays above

CC1=C2C(=O)O[C@@H](c3ccoc3)[C@]2(C)CCC1 [Fraxinellone] (10 µM)
0: all assays above

Cc1ccc(Nc2cc(-c3cccc(N4C(=O)c5ccccc5C4=O)c3)ncn2)cc1NS(C)(=O)=O (10 µM)
1: [1]
0: all other assays above

CN1C(=O)C(Cc2c[nH]c3ccccc23)NC1=S (configuration not stated) [Necrostatin-1] (10 µM)
0: all assays above

COc1c(NC(=O)C(=O)c2ccc(OCCN3CCOCC3)c3ccccc23)cc(C(C)(C)C)cc1NS(C)(=O)=O (2.5 µM)
0: all assays above

Cc1cc(O)c(C(C)C)cc1N=O [Poloxime] (10 µM)
2: [6]
0: all other assays above

O=C(Nc1ccc(F)cc1F)[C@H](NC(=S)Nc1cc(C(F)(F)F)cc(C(F)(F)F)c1)c1ccccc1 (2.5 µM)
0: all assays above

NCCN1CCN(C/C=C/C(=O)N2CCC[C@@H](n3nc(-c4ccc(Oc5ccccc5)cc4)c4c(N)ncnc43)C2)CC1 [Ibrutinib-MPEA] (10 µM)
0: all assays above

CNCc1ccccc1-c1csc([C@@H](C)Nc2nc(C)nc3cc(OC)c(OC)cc23)c1 (2.5 µM)
3: [5]
0: all other assays above

CCn1c(=O)c(-c2ccc(-c3cncs3)cc2Cl)cc2cnc(Nc3ccc(N4CCN(C)CC4)cc3)nc21 (2.5 µM)
0: all assays above

CNC(=O)Nc1ccc(-c2cc(-c3ccnc(Nc4ccc(C)c(S(=O)(=O)N(C)C)c4)n3)ccn2)cc1 [hSMG-1 inhibitor 11e] (2.5 µM)
1: [1]
0: all other assays above
